We go through one molecule from publication PMC4890047.

This test addresses Flag-P (MOKV) (Mokola virus (RV4)). In words: co-IP.

No constants are given. Whether binding was seen depends on the method and setting. Binding seen in cells or lysates may run through a third protein. Binding calls can cover weak binding; strength is not graded here.

B1: Cdc37 expressed from pCI-neo-Cdc37 (protein, UniProt Q61081 1-379)
chain: MVDYSVWDHIEVSDDEDETHPNIDTASLFRWRHQARVERMEQFQKEKEELDRGCRECKRKVAECQRKLKELEVAESDGQVELERLRAEAQQLRKEERSWEQKLEDMRKKEKNMPWNVDTLSKDGFSKSMVNTKPEKAEEDSEEAREQKHKTFVEKYEKQIKHFGMLHRWDDSQKYLSDNVHLVCEETANYLVIWCIDLEVEEKCALMEQVAHQTMVMQFILELAKSLKVDPRACFRQFFTKIKTADHQYMEGFKYELEAFKERVRGRAKLRIEKAMKEYEEEERKKRLGPGGLDPVEVYESLPEELQKCFDVKDVQMLQDAISKMDPTDAKYHMQRCIDSGLWVPNSKSGEAKEGEEAGPGDPLLEAVPKAGNEKDVSA
With B1, the binding entry was “binds”.
